From publication PMC7515921, “MFSD7C switches mitochondrial ATP synthesis to thermogenesis in response to heme” (Nature Communications, 2020)

Protein sequences, listed by entry. Tags and fused reporters are not part of them. Residues count along the entry.
UniProt P29351: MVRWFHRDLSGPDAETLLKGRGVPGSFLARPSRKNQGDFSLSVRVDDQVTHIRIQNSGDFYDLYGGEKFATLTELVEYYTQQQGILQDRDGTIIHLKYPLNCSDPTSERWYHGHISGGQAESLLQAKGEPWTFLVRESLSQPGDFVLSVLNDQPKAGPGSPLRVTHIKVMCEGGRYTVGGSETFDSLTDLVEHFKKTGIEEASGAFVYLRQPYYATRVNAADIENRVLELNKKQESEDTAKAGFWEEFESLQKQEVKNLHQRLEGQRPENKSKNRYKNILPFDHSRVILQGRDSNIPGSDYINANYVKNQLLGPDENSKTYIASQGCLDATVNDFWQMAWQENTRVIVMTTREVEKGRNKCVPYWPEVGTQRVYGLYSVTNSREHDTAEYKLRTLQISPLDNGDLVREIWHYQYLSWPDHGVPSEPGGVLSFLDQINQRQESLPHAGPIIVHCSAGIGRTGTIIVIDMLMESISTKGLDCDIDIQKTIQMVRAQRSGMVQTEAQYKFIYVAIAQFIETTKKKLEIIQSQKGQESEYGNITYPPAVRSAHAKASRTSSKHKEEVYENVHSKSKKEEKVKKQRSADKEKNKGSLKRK
UniProt Q8JZQ2, residues 67-802: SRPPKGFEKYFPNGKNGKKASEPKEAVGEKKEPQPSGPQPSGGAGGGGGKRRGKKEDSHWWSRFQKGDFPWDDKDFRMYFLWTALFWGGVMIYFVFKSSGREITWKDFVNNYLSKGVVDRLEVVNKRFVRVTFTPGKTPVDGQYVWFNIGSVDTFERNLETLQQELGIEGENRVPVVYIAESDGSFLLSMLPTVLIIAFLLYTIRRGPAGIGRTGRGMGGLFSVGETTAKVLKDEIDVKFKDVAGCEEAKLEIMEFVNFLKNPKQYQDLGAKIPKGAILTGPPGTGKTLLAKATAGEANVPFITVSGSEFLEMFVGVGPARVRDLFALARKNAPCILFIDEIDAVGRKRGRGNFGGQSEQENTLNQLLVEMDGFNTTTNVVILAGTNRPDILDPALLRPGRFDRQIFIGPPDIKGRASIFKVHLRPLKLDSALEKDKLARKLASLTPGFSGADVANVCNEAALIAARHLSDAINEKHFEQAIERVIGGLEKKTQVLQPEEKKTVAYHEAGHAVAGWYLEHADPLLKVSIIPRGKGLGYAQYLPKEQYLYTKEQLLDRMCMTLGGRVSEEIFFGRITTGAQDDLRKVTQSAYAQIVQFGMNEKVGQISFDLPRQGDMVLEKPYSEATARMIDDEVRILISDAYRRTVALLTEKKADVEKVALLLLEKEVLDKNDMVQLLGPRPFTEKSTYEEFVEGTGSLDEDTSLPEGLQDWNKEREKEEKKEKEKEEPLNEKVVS
UniProt P11835, residues 24-771: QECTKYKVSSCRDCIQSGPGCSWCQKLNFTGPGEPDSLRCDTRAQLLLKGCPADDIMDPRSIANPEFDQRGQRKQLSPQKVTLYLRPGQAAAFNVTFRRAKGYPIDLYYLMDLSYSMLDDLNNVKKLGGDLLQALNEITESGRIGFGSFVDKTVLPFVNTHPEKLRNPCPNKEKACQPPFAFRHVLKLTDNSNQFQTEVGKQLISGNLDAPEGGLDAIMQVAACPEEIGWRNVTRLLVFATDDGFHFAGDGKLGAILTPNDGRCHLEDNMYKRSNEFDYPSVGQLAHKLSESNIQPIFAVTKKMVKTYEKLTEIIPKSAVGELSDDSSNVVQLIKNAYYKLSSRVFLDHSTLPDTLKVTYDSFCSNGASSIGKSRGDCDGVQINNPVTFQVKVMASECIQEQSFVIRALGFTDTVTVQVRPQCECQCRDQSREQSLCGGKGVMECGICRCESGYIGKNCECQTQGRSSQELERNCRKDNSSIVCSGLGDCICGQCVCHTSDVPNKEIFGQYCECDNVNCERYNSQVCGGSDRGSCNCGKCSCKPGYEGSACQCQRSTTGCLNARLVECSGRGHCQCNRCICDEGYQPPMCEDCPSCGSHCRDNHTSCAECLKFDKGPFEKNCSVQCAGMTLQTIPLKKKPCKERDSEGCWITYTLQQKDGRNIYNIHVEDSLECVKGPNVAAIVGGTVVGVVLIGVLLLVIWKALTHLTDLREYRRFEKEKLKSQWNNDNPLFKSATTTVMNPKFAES
UniProt Q9R049: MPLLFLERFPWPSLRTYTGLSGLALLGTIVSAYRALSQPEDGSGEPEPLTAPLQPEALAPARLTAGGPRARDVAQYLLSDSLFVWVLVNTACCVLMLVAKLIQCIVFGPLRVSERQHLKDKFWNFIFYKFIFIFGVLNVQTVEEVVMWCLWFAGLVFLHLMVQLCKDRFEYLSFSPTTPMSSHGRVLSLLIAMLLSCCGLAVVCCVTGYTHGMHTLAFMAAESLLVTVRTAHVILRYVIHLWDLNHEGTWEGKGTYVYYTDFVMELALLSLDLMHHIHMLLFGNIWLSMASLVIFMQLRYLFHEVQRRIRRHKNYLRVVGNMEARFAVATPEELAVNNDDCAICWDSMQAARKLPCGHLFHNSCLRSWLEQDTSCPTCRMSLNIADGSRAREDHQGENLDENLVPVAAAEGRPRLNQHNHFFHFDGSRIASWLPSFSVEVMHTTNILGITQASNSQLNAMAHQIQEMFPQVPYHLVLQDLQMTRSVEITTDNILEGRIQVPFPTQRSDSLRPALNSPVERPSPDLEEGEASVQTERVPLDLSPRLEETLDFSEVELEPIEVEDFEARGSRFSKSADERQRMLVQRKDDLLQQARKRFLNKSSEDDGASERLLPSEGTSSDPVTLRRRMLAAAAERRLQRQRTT
UniProt P20491, residues 19-86: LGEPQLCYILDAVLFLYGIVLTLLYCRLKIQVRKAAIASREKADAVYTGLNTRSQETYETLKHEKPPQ
UniProt P10852: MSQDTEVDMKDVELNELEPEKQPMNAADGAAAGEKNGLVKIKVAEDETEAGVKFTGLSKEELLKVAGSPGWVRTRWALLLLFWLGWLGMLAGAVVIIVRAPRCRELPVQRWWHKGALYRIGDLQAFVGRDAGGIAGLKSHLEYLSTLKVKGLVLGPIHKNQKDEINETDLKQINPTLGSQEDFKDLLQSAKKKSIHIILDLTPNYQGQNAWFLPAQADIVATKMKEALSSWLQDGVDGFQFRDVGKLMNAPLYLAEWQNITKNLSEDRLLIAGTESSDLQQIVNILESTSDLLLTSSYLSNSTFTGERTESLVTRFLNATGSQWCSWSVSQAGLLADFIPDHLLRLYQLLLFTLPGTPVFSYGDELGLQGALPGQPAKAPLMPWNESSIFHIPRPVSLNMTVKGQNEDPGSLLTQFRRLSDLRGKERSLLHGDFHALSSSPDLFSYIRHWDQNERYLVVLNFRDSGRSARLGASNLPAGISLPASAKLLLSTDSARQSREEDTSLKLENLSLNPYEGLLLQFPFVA
UniProt O35387: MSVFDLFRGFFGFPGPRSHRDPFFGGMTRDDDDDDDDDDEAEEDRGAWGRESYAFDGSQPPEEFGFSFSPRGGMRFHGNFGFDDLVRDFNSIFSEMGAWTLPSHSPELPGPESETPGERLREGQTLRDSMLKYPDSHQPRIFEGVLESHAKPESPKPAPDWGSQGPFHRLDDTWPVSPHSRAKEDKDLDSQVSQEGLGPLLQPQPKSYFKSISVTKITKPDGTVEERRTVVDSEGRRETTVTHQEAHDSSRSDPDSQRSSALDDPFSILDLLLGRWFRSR
UniProt Q91YL2: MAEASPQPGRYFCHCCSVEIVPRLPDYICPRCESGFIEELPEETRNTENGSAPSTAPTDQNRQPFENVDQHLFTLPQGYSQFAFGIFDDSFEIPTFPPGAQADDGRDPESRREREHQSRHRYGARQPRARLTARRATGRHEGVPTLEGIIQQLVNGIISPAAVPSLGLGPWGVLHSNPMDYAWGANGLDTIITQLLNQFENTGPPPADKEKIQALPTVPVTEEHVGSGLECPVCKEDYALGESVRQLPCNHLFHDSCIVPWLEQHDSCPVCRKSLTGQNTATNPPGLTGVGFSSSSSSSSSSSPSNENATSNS
UniProt P50637: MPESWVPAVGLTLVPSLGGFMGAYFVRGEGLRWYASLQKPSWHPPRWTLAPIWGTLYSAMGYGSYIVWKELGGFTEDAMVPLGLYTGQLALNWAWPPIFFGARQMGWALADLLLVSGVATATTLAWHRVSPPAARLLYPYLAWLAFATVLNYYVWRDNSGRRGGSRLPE
UniProt Q3V3R1, residues 32-977: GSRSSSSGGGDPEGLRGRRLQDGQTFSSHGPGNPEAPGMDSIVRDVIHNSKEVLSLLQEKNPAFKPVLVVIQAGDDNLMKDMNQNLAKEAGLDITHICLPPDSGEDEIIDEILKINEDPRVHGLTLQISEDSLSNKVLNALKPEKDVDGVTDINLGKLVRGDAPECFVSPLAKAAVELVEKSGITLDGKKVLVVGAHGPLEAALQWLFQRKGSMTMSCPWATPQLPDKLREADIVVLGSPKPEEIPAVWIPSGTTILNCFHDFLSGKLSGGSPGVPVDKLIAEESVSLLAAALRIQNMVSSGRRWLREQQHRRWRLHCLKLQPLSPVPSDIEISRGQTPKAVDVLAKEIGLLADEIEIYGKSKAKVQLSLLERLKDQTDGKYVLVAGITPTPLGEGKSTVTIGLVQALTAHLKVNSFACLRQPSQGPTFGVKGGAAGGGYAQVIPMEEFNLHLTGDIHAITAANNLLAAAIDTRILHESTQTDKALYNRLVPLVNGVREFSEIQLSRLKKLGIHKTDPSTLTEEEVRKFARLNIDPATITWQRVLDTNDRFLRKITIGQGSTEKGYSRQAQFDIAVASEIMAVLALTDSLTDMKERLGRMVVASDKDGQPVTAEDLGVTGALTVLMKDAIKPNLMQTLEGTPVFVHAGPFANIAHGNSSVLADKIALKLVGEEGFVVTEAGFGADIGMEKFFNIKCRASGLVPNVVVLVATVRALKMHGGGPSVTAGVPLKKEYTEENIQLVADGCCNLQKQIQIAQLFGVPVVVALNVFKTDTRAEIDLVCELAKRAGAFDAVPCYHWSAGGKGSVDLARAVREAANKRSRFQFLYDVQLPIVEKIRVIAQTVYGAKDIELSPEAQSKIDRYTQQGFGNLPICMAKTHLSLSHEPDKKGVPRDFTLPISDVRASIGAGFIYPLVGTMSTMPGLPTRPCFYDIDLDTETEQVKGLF
UniProt Q9D880, residues 22-353: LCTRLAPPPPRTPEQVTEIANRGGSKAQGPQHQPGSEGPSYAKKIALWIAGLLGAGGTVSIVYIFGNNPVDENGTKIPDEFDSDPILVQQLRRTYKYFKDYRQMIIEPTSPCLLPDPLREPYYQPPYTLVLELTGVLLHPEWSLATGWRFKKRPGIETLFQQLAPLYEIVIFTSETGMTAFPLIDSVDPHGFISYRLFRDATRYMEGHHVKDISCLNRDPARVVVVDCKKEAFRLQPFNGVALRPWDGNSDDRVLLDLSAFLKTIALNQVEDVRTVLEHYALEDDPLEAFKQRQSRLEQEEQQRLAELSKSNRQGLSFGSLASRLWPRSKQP
UniProt Q9DCX2: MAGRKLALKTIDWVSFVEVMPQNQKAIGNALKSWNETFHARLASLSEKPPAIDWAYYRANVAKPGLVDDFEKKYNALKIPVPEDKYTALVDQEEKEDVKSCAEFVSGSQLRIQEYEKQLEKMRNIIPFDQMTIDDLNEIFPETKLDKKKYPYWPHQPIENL

T1: MFSD7C tagged with both Myc and FLAG epitopes (murine) (mouse) (UniProt Q91X85)
T1 sequence: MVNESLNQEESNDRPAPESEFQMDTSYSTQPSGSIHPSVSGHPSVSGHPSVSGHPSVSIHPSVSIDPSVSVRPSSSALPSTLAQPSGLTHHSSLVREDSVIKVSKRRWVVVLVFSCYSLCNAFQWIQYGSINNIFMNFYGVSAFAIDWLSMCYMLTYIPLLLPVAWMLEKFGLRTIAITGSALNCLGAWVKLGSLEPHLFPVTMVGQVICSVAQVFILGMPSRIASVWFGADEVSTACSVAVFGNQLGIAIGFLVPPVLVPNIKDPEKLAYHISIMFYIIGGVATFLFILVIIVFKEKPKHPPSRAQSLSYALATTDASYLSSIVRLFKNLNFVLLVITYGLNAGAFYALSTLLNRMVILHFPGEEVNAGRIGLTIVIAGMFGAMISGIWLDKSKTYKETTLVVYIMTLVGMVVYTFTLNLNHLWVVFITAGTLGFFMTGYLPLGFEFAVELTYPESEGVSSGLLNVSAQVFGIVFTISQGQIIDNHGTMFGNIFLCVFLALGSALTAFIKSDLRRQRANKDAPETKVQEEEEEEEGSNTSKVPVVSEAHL


target: T1, MFSD7C tagged with both Myc and FLAG epitopes (murine) (mouse); experiment: affinity purification with mass spectrometry; lysate of MH-S cells expressing MFSD7C-FLAG-Myc (control: GFP alone); 20 mM Tris-HCl pH 7.4, 150 mM NaCl, 0.1% NP-40, 10% glycerol; anti-FLAG beads, 3x FLAG peptide elution, then anti-Myc beads; LC-MS/MS

| Molecule | binding |
| --- | --- |
| Dnaja3 (mouse (endogenous in MH-S)) | binds |
| Sqrdl (mouse (endogenous in MH-S)) | binds |
| Ptpn6 (from UniProt P29351 1-595) | binds |
| Dnaja1 (from UniProt P63037 1-397) | binds |
| Afg3l2 (from UniProt Q8JZQ2 67-802) | binds |
| Itgb2 (from UniProt P11835 24-771) | binds |
| Atp2a2 (SERCA2b) (endogenous) (from UniProt O55143-1 1-1044) | binds |
| Amfr (from UniProt Q9R049 1-643) | binds |
| Slc43a2 (from UniProt Q8CGA3 1-568) | binds |
| Fcer1g (from UniProt P20491 19-86) | binds |
| Slc3a2 (from UniProt P10852 1-526) | binds |
| Hax1 (from UniProt O35387 1-280) | binds |
| Rnf126 (from UniProt Q91YL2 1-313) | binds |
| Canx (protein, UniProt P35564 21-591) HDGHDDDAIDIEDDLDDVIEEVEDSKSKSDASTPPSPKVTYKAPVPTGEVYFADSFDRGSLSGWILSKAKKDDTDDEIAKYDGKWEVDEMKETKLPGDKGLVLMSRAKHHAISAKLNKPFLFDTKPLIVQYEVNFQNGIECGGAYVKLLSKTAELSLDQFHDKTPYTIMFGPDKCGEDYKLHFIFRHKNPKTGVYEEKHAKRPDADLKTYFTDKKTHLYTLILNPDNSFEILVDQSVVNSGNLLNDMTPPVNPSREIEDPEDRKPEDWDERPKIADPDAVKPDDWDEDAPSKIPDEEATKPEGWLDDEPEYIPDPDAEKPEDWDEDMDGEWEAPQIANPKCESAPGCGVWQRPMIDNPNYKGKWKPPMIDNPNYQGIWKPRKIPNPDFFEDLEPFKMTPFSAIGLELWSMTSDIFFDNFIISGDRRVVDDWANDGWGLKKAADGAAEPGVVLQMLEAAEERPWLWVVYILTVALPVFLVILFCCSGKKQSNAMEYKKTDAPQPDVKDEEGKEEEKNKRDEEEEEEKLEEKQKSDAEEDGVTGSQDEEDSKPKAEEDEILNRSPRNRKPRRE | binds |

The remaining lines, values ahead:

| binding | Molecule |
| --- | --- |
| binds | Tspo (from UniProt P50637 1-169) |
| binds | Mthfd1l (from UniProt Q3V3R1 32-977) |
| binds | TIM50 (from UniProt Q9D880 22-353) |
| binds | ATP5h (endogenous) (from UniProt Q9DCX2 1-161) |
| binds | HMOX1 (endogenous) (protein, UniProt P14901 1-289) MERPQPDSMPQDLSEALKEATKEVHIQAENAEFMKNFQKGQVSREGFKLVMASLYHIYTALEEEIERNKQNPVYAPLYFPEELHRRAALEQDMAFWYGPHWQEIIPCTPATQHYVKRLHEVGRTHPELLVAHAYTRYLGDLSGGQVLKKIAQKAMALPSSGEGLAFFTFPNIDSPTKFKQLYRARMNTLEMTPEVKHRVTEEAKTAFLLNIELFEELQVMLTEEHKDQSPSQMASLRQRPASLVQDTAPAETPRGKPQISTSSSQTPLLQWVLTLSFLLATVAVGIYAM |
| binds | Ssr4 (protein, UniProt Q62186 24-172) ACLEPQITPSYYTTSDAVISTETVFIVEISLTCKNRVQNMALYADVSGKQFPVTRGQDVGRYQVSWSLEHKSAHAGTYEVRFFDEESYSLLRKAQRNNEDVSIIPPLFTVSVDHRGTWNGPWVSTEVLAAVIGIVIYYLAFSAKSHIQA |

No constants are given. Whether binding was seen depends on the method and setting. Binding seen in cells or lysates may run through a third protein. A yes stands for co-enrichment or nearness to the bait. Other partners may have been found. Sequences can lack the tags named with a protein.
